Test results taken from paper PMC12697862.
No constants are given. Whether binding was seen depends on the method and setting. For part of these data: Binding seen in cells or lysates may run through a third protein. Some results given as binding are weak or reduced against the parent protein; the word gives no strength.

Protein sequences, listed by entry. Tags and fused reporters are not part of them. Lines headed by an entry give the natural chain unless they say otherwise; changes in a name come on top. Chains listed by the source or under a name are the forms on record and can include a tag or linker. Residues count along the entry.
GRP75, endogenous in mouse liver (mouse (endogenous in liver)) (P38647, residues 47-679): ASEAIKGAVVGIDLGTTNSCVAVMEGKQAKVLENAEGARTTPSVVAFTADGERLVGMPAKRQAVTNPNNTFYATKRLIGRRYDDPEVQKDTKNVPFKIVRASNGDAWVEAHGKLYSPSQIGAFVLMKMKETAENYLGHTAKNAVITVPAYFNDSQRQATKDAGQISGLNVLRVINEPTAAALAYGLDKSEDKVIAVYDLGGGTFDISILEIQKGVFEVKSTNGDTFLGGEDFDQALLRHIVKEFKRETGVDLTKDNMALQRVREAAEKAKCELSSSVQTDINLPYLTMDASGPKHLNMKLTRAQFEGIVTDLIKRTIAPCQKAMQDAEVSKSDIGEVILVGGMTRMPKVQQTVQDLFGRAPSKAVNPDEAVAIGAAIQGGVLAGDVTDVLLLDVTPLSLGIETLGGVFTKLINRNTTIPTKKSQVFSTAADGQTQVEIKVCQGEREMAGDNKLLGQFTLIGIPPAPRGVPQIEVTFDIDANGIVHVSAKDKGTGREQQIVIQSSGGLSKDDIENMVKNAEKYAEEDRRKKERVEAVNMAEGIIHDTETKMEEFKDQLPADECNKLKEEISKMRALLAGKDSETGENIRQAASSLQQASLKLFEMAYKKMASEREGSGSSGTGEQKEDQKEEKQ
GRP75-2KQ, expressed in mouse liver (AAV-GRP75-2KQ) (P38647, form named): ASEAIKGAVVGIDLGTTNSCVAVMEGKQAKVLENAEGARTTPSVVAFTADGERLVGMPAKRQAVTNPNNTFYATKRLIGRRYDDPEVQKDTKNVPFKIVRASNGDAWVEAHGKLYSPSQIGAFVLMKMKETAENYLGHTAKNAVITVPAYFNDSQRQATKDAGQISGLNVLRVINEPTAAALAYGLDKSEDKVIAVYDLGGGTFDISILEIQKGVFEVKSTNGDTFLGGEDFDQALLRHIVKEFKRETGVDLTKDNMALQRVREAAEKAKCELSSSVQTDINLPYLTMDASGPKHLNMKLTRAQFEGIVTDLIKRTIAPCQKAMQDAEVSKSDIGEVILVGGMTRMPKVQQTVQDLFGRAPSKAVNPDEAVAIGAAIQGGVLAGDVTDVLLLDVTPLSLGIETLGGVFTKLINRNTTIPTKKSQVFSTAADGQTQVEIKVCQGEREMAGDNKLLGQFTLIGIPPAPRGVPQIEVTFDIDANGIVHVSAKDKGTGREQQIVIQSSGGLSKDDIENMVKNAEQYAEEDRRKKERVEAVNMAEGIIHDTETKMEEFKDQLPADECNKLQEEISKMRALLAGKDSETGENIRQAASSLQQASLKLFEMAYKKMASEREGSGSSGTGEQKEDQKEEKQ
GRP75-2KR, expressed in mouse liver (AAV-GRP75-2KR) (P38647, form named): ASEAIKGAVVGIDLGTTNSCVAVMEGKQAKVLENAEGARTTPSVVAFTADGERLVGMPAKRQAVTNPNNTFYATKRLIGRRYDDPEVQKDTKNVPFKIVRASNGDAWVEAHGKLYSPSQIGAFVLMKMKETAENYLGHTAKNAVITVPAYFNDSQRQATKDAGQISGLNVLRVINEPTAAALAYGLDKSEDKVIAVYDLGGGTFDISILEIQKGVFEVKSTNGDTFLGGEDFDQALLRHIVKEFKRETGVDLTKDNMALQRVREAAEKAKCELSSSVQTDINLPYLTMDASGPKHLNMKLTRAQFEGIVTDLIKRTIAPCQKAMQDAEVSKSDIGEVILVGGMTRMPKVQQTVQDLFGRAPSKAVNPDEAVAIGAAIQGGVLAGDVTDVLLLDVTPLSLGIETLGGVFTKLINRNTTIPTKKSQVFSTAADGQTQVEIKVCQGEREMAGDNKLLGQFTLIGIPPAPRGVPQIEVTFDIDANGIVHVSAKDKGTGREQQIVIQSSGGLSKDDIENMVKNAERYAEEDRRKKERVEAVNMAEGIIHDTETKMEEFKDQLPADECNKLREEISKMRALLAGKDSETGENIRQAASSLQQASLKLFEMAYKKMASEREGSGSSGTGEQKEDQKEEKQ
UniProt P11881: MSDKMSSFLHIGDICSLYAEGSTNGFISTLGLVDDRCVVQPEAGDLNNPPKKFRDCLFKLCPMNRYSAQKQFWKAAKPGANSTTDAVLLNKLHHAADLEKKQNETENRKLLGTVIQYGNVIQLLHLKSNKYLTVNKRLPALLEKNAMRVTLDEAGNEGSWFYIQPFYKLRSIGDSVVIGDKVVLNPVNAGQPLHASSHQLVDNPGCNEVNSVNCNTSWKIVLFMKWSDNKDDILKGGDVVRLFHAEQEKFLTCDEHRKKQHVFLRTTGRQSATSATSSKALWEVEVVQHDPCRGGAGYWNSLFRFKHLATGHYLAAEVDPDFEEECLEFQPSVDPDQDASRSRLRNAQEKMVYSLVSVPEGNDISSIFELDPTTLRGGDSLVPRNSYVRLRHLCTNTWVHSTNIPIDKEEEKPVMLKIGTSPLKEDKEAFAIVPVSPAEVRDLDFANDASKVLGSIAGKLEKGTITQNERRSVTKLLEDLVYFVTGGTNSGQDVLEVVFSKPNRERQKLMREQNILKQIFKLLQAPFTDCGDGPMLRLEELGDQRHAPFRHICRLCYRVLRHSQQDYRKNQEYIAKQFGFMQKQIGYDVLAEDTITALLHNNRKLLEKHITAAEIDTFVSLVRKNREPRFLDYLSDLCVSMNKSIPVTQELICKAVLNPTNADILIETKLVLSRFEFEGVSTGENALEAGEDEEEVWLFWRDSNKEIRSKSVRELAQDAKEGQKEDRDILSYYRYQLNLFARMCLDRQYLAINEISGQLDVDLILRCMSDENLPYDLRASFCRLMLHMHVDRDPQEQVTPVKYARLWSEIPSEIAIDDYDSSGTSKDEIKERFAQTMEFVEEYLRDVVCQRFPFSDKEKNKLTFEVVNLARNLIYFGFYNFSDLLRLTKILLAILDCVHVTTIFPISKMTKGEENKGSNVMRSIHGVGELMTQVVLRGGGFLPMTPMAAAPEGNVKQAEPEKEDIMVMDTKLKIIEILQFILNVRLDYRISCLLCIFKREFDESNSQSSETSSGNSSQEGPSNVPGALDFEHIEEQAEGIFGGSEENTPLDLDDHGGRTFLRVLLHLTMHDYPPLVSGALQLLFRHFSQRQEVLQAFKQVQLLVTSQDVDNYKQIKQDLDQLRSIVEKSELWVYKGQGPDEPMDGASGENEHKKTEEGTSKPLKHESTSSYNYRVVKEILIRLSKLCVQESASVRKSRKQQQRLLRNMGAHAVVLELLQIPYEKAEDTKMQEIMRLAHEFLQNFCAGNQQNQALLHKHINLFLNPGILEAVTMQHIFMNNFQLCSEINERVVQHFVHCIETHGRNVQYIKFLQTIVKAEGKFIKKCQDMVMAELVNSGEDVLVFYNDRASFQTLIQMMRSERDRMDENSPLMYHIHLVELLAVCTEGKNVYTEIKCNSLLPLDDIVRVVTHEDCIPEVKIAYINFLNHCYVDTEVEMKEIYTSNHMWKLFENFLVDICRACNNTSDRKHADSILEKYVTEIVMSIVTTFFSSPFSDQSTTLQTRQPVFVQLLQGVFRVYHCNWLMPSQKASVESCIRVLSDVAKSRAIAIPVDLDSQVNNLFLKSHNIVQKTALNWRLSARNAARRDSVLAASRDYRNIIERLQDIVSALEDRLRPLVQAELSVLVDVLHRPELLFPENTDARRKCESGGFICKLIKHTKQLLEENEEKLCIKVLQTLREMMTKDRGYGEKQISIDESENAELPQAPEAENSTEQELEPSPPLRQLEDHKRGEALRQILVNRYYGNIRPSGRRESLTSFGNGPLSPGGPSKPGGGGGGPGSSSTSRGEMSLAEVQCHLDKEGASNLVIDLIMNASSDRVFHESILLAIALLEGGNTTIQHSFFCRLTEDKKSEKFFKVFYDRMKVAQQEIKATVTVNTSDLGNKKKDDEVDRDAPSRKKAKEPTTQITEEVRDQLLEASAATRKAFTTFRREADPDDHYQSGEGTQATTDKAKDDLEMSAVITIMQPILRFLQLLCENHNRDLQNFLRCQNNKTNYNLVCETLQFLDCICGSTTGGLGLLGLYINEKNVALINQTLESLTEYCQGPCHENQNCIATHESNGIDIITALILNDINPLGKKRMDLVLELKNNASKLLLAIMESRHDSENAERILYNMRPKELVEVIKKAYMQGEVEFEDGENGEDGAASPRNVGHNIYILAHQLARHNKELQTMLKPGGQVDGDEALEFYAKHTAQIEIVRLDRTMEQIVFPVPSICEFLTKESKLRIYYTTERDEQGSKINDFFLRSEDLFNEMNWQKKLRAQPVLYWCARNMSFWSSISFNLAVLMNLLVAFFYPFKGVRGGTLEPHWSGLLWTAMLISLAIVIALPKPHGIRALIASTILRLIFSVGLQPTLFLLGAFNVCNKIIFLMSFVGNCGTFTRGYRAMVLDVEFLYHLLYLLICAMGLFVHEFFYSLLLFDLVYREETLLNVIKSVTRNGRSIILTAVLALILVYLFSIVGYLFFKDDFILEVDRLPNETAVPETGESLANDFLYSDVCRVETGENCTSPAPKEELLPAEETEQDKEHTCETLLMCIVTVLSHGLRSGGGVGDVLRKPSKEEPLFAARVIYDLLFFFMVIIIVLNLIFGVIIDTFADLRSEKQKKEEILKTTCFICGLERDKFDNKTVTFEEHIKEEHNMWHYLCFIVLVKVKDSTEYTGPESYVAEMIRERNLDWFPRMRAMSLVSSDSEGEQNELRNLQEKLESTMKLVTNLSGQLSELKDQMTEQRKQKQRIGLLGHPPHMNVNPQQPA

Assays:
[1] = biological target: GRP75-2KQ, expressed in mouse liver (AAV-GRP75-2KQ) (mouse) (UniProt P38647); assay: co-IP; livers of mice expressing AAV-GRP75-2KR or 2KQ under NCD; endogenous IP3R1 detected
[2] = biological target: GRP75-2KR, expressed in mouse liver (AAV-GRP75-2KR) (mouse) (UniProt P38647); assay: as above
[3] = biological target: GRP75, endogenous in mouse liver (mouse (endogenous in liver)) (UniProt P38647); assay: native gel or EMSA; Blue-native PAGE 4-13% at 4 °C of primary hepatocytes lysed in 2% digitonin, 50 mM Bis-Tris, 50 mM NaCl, pH 7.4; immunoblotting; hepatocytes of GCN5L1 LKO and control mice and of GRP75-2KR and GRP75-2KQ mice

binding [1]: binds | binding [2]: binds | binding [3]: binds
Substance: IP3R1, endogenous in mouse liver (from UniProt P11881 1-2749) (receptor)
